Out of some 53,000 sequences screened, about 3,700 (7%) were called active.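 The calls were made as follows: active = gene knockdowns whose robust z-score for IL-1 alpha signal is at least 2 or at most -2, so actives lie on both sides; inactive = the rest.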 This is one part of the list.
Assay: Components of the Cytosolic LPS Sensing Pathway: Gene Identification via Genome-wide siRNA Screen;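 also: robust z of the log signal after scaling to non-targeting control siRNA wells of the plate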
Conditions: RAW264.7 macrophages, IL-1a HTRF, actives lie on both sides, screened at 100 nM (by protocol), cells primed 5 h with Pam3CSK4 first
Procedure, shortened: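 Read-out: IL-1a HTRF on supernatant, divided by plate negative-control median ×100, log-transformed and converted to robust z-score. Cells were RAW264.7 given 100 nM siRNA, Pam3CSK4-primed 5 hours, then LipidA-transfected 24 hour.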

Sequence	z-score
GGAAAUUGCUCAGGAGUUUTT against Anxa5	inactive: -1.26
GAUAUCACGGUCAUCUGUCTT against Pde6h	inactive: -0.19
CCAAUUGUGAGAAGAGUGUTT against Cog7	inactive: -0.46
CCGUUUCAUUUCAGGGAGGTT against Phf1	inactive: 0.307
GCCCAGGUCUUGUUGACAATT against Ppm1e	inactive: -0.585
GGCUAUUCAGUAUGCCAGATT against Atm	inactive: -0.266
GGUGGACCAUUUCAGGUUCTT against B4galt7	inactive: 0.689
GGACCUCAUGGAGCUCCAATT against Tnnt3	inactive: 0.924
GCUGGUGAUGACGUGUAUCTT against Slc32a1	inactive: 0.357
GGAAGUAAAAACAUACCUUTT against Chac2	active: 2.02
GGCCAGUUUUCAGGACAGUTT against Fcgr1	inactive: 0.802
CCAUUGUGUGGUACUUAAATT against Mrm3	inactive: 0.448
GGAUACUCCUCUGAGUAGUTT against Mtmr11	inactive: -0.469
GGCCUAUAAUUUCUUUACGTT against Cc2d2a	inactive: -0.823
GGGCAAAGGAAAUGGAAUCTT against Eif5	active: 2.33
GGACACAGUAGAGCGGAUUTT against Rell2	inactive: 0.996
GGUCCUAUGCAGAUACCAATT against Gstk1	inactive: 0.913
GGCACCAUCGAGCUGUUAUTT against Osgep	inactive: 1.63
CCCUUUCUUUCAUGAGCCGTT against Dguok	inactive: -0.836
GGCAGAAAGCAAAAUGUUUTT against Gata3	active: -4.28
GGGAUCAAGUUAAAUAGACTT against Snhg16	inactive: -0.184
GGUCAAGUAACAUGGUUUGTT against Rundc3b	inactive: 0.282

Sequence	z-score
CGACCAGAUGAACUGGUGUTT against Smg9	inactive: 0.929
GCUUUAUUUUUUCCACCUUTT against Olfr106-ps	inactive: 0.333
GGCCUUGCUUCAUAUAAGGTT against Kat6b	inactive: 0.0845
GGUACGACAAAGAAAAACCTT against Rnmt	inactive: 1
GGCAGCAAGAAAAAGAUUCTT against Spi1	inactive: -0.763
GGAAAGUGUGCUUCCAAUUTT against Olfr1138	inactive: -1.02
GGCAUAUCAGACACCUCUUTT against Olfr697	inactive: 0.736
GCUAAACGAGAGAAAAAGATT against Arhgef10	inactive: 1.54
GGGUGUACUGAACUUUGUGTT against Kat2a	inactive: 0.37
CGACAGAAACUAGAAACCCTT against Chmp2a	inactive: -1.38
GGAUGAUUUGGCCAACACCTT against Atraid	inactive: -0.115
GGAGCUCCAUGACAUGUUUTT against Stx3	inactive: -0.37
GGCAAAACAACUUUAUUCCTT against Ucp2	inactive: 1.14
GGUGGUGGUUGGUAAUGAUTT against Kif4	inactive: -0.747
GGACACCAUUGGCUCCUUATT against Tmub1	inactive: 1.63
GGACAAAGAUGAAUAUGUGTT against Spag6l	inactive: -0.34
GGACUUACUCCACAGCCUATT against Tbp	inactive: -1.73
GGUAACUGCUUGCUACAGGTT against Npm3	inactive: -0.25
CCAAAAUAAGUGUGGUCAATT against Vstm2l	inactive: -0.623
GGAGGGACUUACCACAAGGTT against Timeless	inactive: 0.282
GCACCGUGACUCAGAUAGATT against Slco1c1	inactive: -0.191
CCAACGGCAUAAAUCCUGATT against Trappc9	inactive: -1.95

Sequence	z-score
GGUUAUAGCUUCAAUAGCUTT against Bphl	inactive: -0.61
GGUAGAAACGGCUCUAUUATT against Atp6v1b2	inactive: 0.249
GCAACUAUGAACAAGAAUCTT against Grm3	inactive: -0.0322
GGAUUCCUGCUUUCUUUGCTT against Rnf26	inactive: -0.605
GGAGCAGAUGGUCCUGUUATT against Eda	inactive: 0.503
CCGGUUAUGUUAAAGGCAATT against Tlk1	inactive: 0.0946
GCAAAGUACGCCAAGAUGGTT against Cplx1	inactive: -0.29
GGUAAUCAAGACCCACAAATT against Shank3	inactive: 0.536
GGCAUCUGAAUUCCCUUCUTT against Id2	inactive: 1.94
GGUGUUCAGACUACCCUCUTT against Serpina3m	inactive: -1.16
CCCUAAAAGACAAAGUGCUTT against Cmtm3	inactive: 0.877
CGUCAUCUUAUCAUGUAUUTT against Camk2d	inactive: -0.266
CCCUUAUCCUCACGUCAGATT against Spic	inactive: -1.24
GCUGAAAAUAUACCAUUCATT against Colec10	inactive: -0.798
GGGCAAGAAGGUAGACAUUTT against Hoga1	inactive: 0.278
CCUUAUCAAAAAGCUCUCATT against Lats2	inactive: -0.677
GGGAAGAUGGAAGACUACGTT against Ramp2	inactive: 0.75
GGUUCAAUAAGCACUUGGATT against Atn1	inactive: -0.239
CGGGCCUAAACCUCUUAAUTT against Rest	inactive: 0.616
GGGUCGUAAUGAGUUCUGGTT against Med1	inactive: 0.83
GCAUCAUCCAUACGUCUUATT against Ovgp1	inactive: -0.0273
CCACCAUGACUGCAAAUGUTT against Olfr1469	inactive: -0.817

Sequence	z-score
CCUUAUCACAUGUAUCCUCTT against Slc9a9	inactive: -1.06
GGAGCGAUUUGCUGGUGUGTT against Rps16	inactive: 1.19
GGGACUGGCAGAUCUUAUCTT against Gtpbp3	inactive: 0.817
CCAAAACCUGAACUCACUATT against Fzd5	inactive: -0.795
GGAUUUAAGUGCCCGGUAUTT against Znrf2	inactive: 1.34
GGAAAGCUCUCAAUACCUGTT against Olfr633	inactive: -0.688
GGUCCACUGGAAAUGCUUUTT against F2rl3	inactive: -0.285
GGAUCAGAUGACACAGACUTT against Stk19	inactive: -1.48
GGCAAAAGAACAAGAAACUTT against Orc1	active: -2.09
GUUCUAUGGUAGACAUUAUTT against Gm5414	active: -2.35
GGACUUUUGGCACUCUUAUTT against Snx10	inactive: 0.127
GCGAUUUUACGGAUCCGGUTT against Olfr1420	inactive: 1.13
UCUUUGUGAUUUCGAAGCCTT against Slc17a9	active: 2.31
GCUAAAAACGACCACAACCTT against Mvd	inactive: -0.459
GCCACAUCCUAUGUGAUGATT against Olfr1349	inactive: -0.647
GCCUUUCAUGCUCCAACAUTT against Olfr995	inactive: 0.242
GGUUUGGAUUGGGUAAAGGTT against Apex1	inactive: -0.416
GGCGAGAAGUGUAACAUUCTT against Fjx1	inactive: 1.89
GGACCAUGUAUUUUUCUCUTT against B3gnt5	inactive: -0.239
GGAUAAGACAAGAAGAGAUTT against Dnah14	inactive: 1.89
GGAACGAUAAGCAACUUUGTT against Cwc22	inactive: -0.7
CCGUCUAUUAGUGAAGAUGTT against Pex1	inactive: 0.0157

As entered above:
GGACACCAUUGGCUCCUUATT against Tmub1 – z-score: inactive: 1.63
GGCAUCUGAAUUCCCUUCUTT against Id2 – z-score: inactive: 1.94
GAUAUCACGGUCAUCUGUCTT against Pde6h – z-score: inactive: -0.19
CGUCAUCUUAUCAUGUAUUTT against Camk2d – z-score: inactive: -0.266

Further entries

Sequence	z-score
GGAAGGUGAGAGCAUUAUGTT against Lrba	inactive: -1.3
GGAGUUGAGCAAGACCAAGTT against Ccdc102a	inactive: 0.628
GCUUAAGAAUCGAAAAGAGTT against Krcc1	inactive: 0.813
GGUUGAUGAAAUUAGAGAGTT against Esco1	inactive: 0.549
GGAGAAGGGAACCAAUAAGTT against Vgll1	inactive: -1.42
CCUCAUUUCAAGACUGUUATT against Aurka	inactive: -0.831
GGUGAGCAAAGAGACAUAUTT against Hivep3	inactive: 0.422
GGAGACUACCAGAAGGCCUTT against Stip1	inactive: -0.425
UGCAUGGACUUACGAAAGATT against Tas2r115	inactive: 0.454
GCCCACCUAAACCAACAGUTT against Dap	inactive: 0.989
CGAUAUUUAUAUCCACCUATT against Fam81a	inactive: -0.758
GGAAGUGUACUUCUACACATT against Gabrq	inactive: 0.637
CCAGCUGGAAUUCAUGGUCTT against Olfr1307	inactive: 0.49
GGACAACCGAAGUUUUAAUTT against E130308A19Rik	inactive: 0.0435
CCACUUACAUGUCAGAUUATT against Slc30a6	inactive: 1.09
GGUGUGGGUGGGAAAAGAATT against Eva1b	inactive: 0.521
GCAAUGUGACCUUUCUUCUTT against Tm7sf3	inactive: 0.337
CCCAAGGUCCAGUUUGAUGTT against Mettl17	active: -2.42
CCUAUUUUAACCUUACGUGTT against Bdh1	inactive: -0.443
